In the data set the test system is HLA Class II alleles. Put plainly: HLA Class II phenotypic coverage in a worldwide population calculated from alleles found to bind in vitro. Also on record: species or system human.

No end group written: not given here.

Turning to `CC[C@H](C)[C@H](NC(=O)CNC(=O)[C@@H](N)CCCNC(=N)N)C(=O)N[C@@H](CCC(=O)O)C(=O)N[C@@H](Cc1ccc(O)cc1)C(=O)N[C@H](C(=O)N[C@@H](CCC(N)=O)C(=O)N[C@@H](Cc1c[nH]cn1)C(=O)N[C@@H](CC(N)=O)C(=O)NCC(=O)N[C@H](C(=O)N[C@H](C(=O)N[C@@H](CCC(N)=O)C(=O)N[C@@H](CCC(=O)O)C(=O)N[C@@H](CO)C(=O)O)C(C)C)C(C)C)[C@@H](C)CC` [pep-025], the Number of alleles is, setting by setting: (Cutoff 1000 nM) 12; (Cutoff: 300 nM) 6.

As for `CC[C@H](C)[C@H](NC(=O)[C@H](CO)NC(=O)[C@@H]1CCCN1C(=O)[C@H](CCC(=O)O)NC(=O)[C@H](CO)NC(=O)CNC(=O)[C@H](Cc1c[nH]cn1)NC(=O)[C@H](CO)NC(=O)CN)C(=O)N[C@H](C(=O)N[C@@H](Cc1c[nH]cn1)C(=O)N[C@@H](CCCNC(=N)N)C(=O)NCC(=O)N[C@@H](CCCCN)C(=O)N1CCC[C@H]1C(=O)N[C@@H](Cc1ccccc1)C(=O)N[C@@H](CCC(N)=O)C(=O)N[C@@H](CC(C)C)C(=O)N[C@@H](CCC(=O)O)C(=O)N[C@@H](C)C(=O)O)[C@@H](C)CC` [pep-090], the Number of alleles reads like this: (Cutoff 1000 nM) 8; (Cutoff: 300 nM) 6.

For `CC[C@H](C)[C@H](NC(=O)[C@H](CCSC)NC(=O)[C@H](CCCNC(=N)N)NC(=O)[C@H](Cc1ccccc1)NC(=O)[C@H](CCCCN)NC(=O)[C@@H](NC(=O)[C@H](CCSC)NC(=O)[C@H](CC(N)=O)NC(=O)[C@H](Cc1ccc(O)cc1)NC(=O)[C@@H](NC(=O)[C@@H](N)CCC(=O)O)[C@@H](C)CC)C(C)C)C(=O)N[C@@H](C)C(=O)NCC(=O)N[C@@H](CCC(N)=O)C(=O)N[C@@H](CCC(=O)O)C(=O)O` [pep-117], the Number of alleles by setting is: (Cutoff 1000 nM) 14; (Cutoff: 300 nM) 10.

As for `CC[C@H](C)[C@H](NC(=O)CNC(=O)[C@@H](N)CCCNC(=N)N)C(=O)N[C@@H](CCC(=O)O)C(=O)N[C@@H](Cc1ccc(O)cc1)C(=O)N[C@H](C(=O)N[C@@H](CCC(N)=O)C(=O)N[C@@H](Cc1c[nH]cn1)C(=O)N[C@@H](CC(N)=O)C(=O)NCC(=O)N[C@H](C(=O)N[C@H](C(=O)N[C@@H](CCC(N)=O)C(=O)N[C@@H](CCC(=O)O)C(=O)N[C@@H](CO)C(=O)N[C@@H](Cc1ccc(O)cc1)C(=O)N[C@@H](Cc1ccc(O)cc1)C(=O)N[C@@H](CCCNC(=N)N)C(=O)N[C@@H](Cc1ccc(O)cc1)C(=O)N[C@H](C(=O)N[C@@H](C)C(=O)N[C@@H](CCCNC(=N)N)C(=O)O)C(C)C)C(C)C)C(C)C)[C@@H](C)CC` [pep-123], the Number of alleles (Cutoff 1000 nM) was 16 and the Number of alleles (Cutoff: 300 nM) was 12.

Regarding `CC[C@H](C)[C@H](NC(=O)CNC(=O)[C@@H](NC(=O)[C@@H](NC(=O)[C@@H](NC(=O)[C@H](C)NC(=O)[C@@H](NC(=O)[C@H](C)NC(=O)[C@H](CO)NC(=O)[C@H](Cc1c[nH]cn1)NC(=O)[C@@H](NC(=O)[C@H](CCC(N)=O)NC(=O)[C@H](C)NC(=O)[C@H](CC(C)C)NC(=O)[C@H](C)NC(=O)[C@H](CCC(=O)O)NC(=O)[C@@H](N)CCCNC(=N)N)[C@@H](C)O)[C@@H](C)CC)C(C)C)[C@@H](C)CC)[C@@H](C)CC)C(=O)N[C@@H](CCCCN)C(=O)N[C@@H](CC(=O)O)C(=O)N[C@@H](CC(C)C)C(=O)N[C@@H](CC(=O)O)C(=O)N[C@@H](C)C(=O)O` [pep-130], the Number of alleles runs as follows: (Cutoff 1000 nM) 16; (Cutoff: 300 nM) 11.

In the case of ATESAYLAYRNTSLD [pep-022], the Number of alleles runs as follows: (Cutoff 1000 nM) 8; (Cutoff: 300 nM) 6.

As to DNGYGYFAANIDLMMIEE [pep-010], the Number of alleles reads like this: (Cutoff 1000 nM) 20; (Cutoff: 300 nM) 16.

Turning to ESAYLAYRNQSLDLAE [pep-009], the Number of alleles is listed as 13 (Cutoff 1000 nM) and 10 (Cutoff: 300 nM).

In the case of GSGSSWAFSGVAATESAYLA [pep-044], the Number of alleles was 17 (Cutoff 1000 nM) and 12 (Cutoff: 300 nM).

For the molecule GSHGSDPSIIHRGKPFTLEA [pep-102], the Number of alleles is given as 8 (Cutoff 1000 nM) and 7 (Cutoff: 300 nM).

With HAVNIVGYSNAQGVDYWIVR [pep-058], the Number of alleles by setting is: (Cutoff 1000 nM) 15; (Cutoff: 300 nM) 12.

Take HRGKPFQLEAVFEANQNTKT [pep-091]: the Number of alleles was 10 (Cutoff 1000 nM) and 5 (Cutoff: 300 nM).

Turning to IEYIQHNGVVQESYYRYVAR [pep-049], the Number of alleles by setting is: (Cutoff 1000 nM) 16; (Cutoff: 300 nM) 9.

As for IEYIQQNGVVEERSYPYVAR [pep-075], the Number of alleles reads like this: (Cutoff 1000 nM) 10; (Cutoff: 300 nM) 5.

As to KSENVVVTVKLVGDNGVLAS [pep-109], the Number of alleles is 7 (Cutoff 1000 nM) and 6 (Cutoff: 300 nM).

Take LVGDNGVLASAIATHAKIRD [pep-110]: the Number of alleles (Cutoff 1000 nM) is listed as 12 and the Number of alleles (Cutoff: 300 nM) was 8.

For LVKGQQYDIKYTWNVPKIAPK [pep-131], the Number of alleles is, setting by setting: (Cutoff 1000 nM) 9; (Cutoff: 300 nM) 6.

As for NGYGYFAANIDLMM [pep-011], the Number of alleles (Cutoff 1000 nM) is given as 15 and the Number of alleles (Cutoff: 300 nM) was 9.

NHEIKKVLVPGSHGSEPSII [pep-089]: the Number of alleles (Cutoff 1000 nM) is recorded as 2 and the Number of alleles (Cutoff: 300 nM) is on record as 2.

Turning to QESYYRYVAREQSSRR [pep-122], the Number of alleles was 10 (Cutoff 1000 nM) and 6 (Cutoff: 300 nM).

Take QESYYRYVAREQSSRRPNAQ [pep-050]: the Number of alleles runs as follows: (Cutoff 1000 nM) 4; (Cutoff: 300 nM) 2.

On to QQYDIKYTWNVPKIA [pep-031], for which the Number of alleles by setting is: (Cutoff 1000 nM) 14; (Cutoff: 300 nM) 7.

VMGDDGVLASAIATHAKIRD [pep-099]: the Number of alleles is reported as 8 (Cutoff 1000 nM) and 5 (Cutoff: 300 nM).

For the molecule VMGDNGVLASAIATHAKIRD [pep-125], the Number of alleles is recorded as 6 (Cutoff 1000 nM) and 4 (Cutoff: 300 nM).

On to VQESYYRYVAREQSSRRPNAQ [pep-124], for which the Number of alleles reads like this: (Cutoff 1000 nM) 5; (Cutoff: 300 nM) 3.

YPPNANKIREALAQTHSAIA [pep-053]: the Number of alleles is reported as 6 (Cutoff 1000 nM) and 5 (Cutoff: 300 nM).

Values taken from US20160251403A1, “PEPTIDE COMBINATIONS AND USES THEREOF IN TREATING DUST MITE ALLERGY” (ALK-ABELLO A/S, priority 2013, published 2016).
